Data: the RNAGym collection of RNA variant scans (doi:10.1126/science.aae0568)
Variants at the background level are over-represented here.

B1: tRNA (parent)
chain: GUUCCGUUGGCGUAAUGGUAACGCGUCUCCCUCCUAAGGAGAAGACUGCGGGUUCGAGUCCCGUACGGAACG

Variants of: B1
Test: yeast fitness relative to wild type (ratio to wild type); higher = fitter; tRNA-Arg(CCU), competitive growth, 37 C, YPD
In short: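 The tRNA-Arg(CCU) gene variants were made by chemical synthesis with a 3% per-site mutation rate at 69 sites and inserted at the native genomic locus of Saccharomyces cerevisiae. After pooling, the strains were competed in YPD at 37°C for 24 hours in six parallel replicates. Gene amplicons from the start population and each end population were read by 100-nucleotide paired-end sequencing, and Darwinian fitness relative to wild type was taken from genotype frequency changes. Genotypes needed ≥ 100 starting reads, and estimates < 0.5 were set to 0.5.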

Row | Variant | yeast fitness
1 | A14G A21C A69U | ≤ 0.5
2 | A14G A21G C24G U28G | ≤ 0.5
3 | A14G A37C A65G | 0.659
4 | A14G A42G G48A | ≤ 0.5
5 | A14G C22U A45U | 0.626
6 | A14G C24G A69C | ≤ 0.5
7 | A14G C27A U59G | ≤ 0.5
8 | A14G C27G C34G A37U U53A C55G | ≤ 0.5
9 | A14G C27U U28G G58C G63C | ≤ 0.5
10 | A14G C29G C31U | 0.6
11 | A14G C31A C46G A57U A65G | ≤ 0.5
12 | A14G C34U C66G | ≤ 0.5
13 | A14G G18A | 0.63
14 | A14G G18C C29G G56C C66U | ≤ 0.5
15 | A14G G51C U59G | ≤ 0.5
16 | A14G G58C C62A C66G | ≤ 0.5
17 | A14G U19C C60G | ≤ 0.5
18 | A14G U28G G41C U64C | ≤ 0.5
19 | A14G U47G G56A | ≤ 0.5
20 | A14U A15G C31A C34G C61U | ≤ 0.5
21 | A14U A20G C31G U53C A69U | ≤ 0.5
22 | A14U A21G A43U | ≤ 0.5
23 | A14U A45U G68C | ≤ 0.5
24 | A14U C22G A57C G63C C66U | 0.578

Row | Variant | yeast fitness
25 | A14U C22G G23C U32C A40C C60U G68C | ≤ 0.5
26 | A14U C24U C33A A42C | ≤ 0.5
27 | A14U C30G C33A C60A | ≤ 0.5
28 | A14U C31A C46U G48A C49U | ≤ 0.5
29 | A14U C34G G56C | ≤ 0.5
30 | A14U G18C A70G | 0.715
31 | A14U G38C U47A A69U | ≤ 0.5
32 | A14U G44A G67A A70G | ≤ 0.5
33 | A14U G48C | 0.714
34 | A14U G50A U54A | ≤ 0.5
35 | A14U G51C G52A G56C | ≤ 0.5
36 | A14U G56C A57U C61A A70C | ≤ 0.5
37 | A14U U26A C30U | ≤ 0.5
38 | A14U U28A G41C A42U G52A | ≤ 0.5
39 | A14U U32C C49U A57C | ≤ 0.5
40 | A14U U54C | ≤ 0.5
41 | A15C A21C C34G | ≤ 0.5
42 | A15C A36C G48A G67A | 0.541
43 | A15C A36G G56A C61U | ≤ 0.5
44 | A15C A36U C66A | ≤ 0.5
45 | A15C A40U A70U | 0.563
46 | A15C C27U G52A C61A A70U | ≤ 0.5
47 | A15C C27U G63A | ≤ 0.5
48 | A15C C27U U28A A40U | ≤ 0.5

Row | Variant | yeast fitness
49 | A15C C29U G39C A42U G50U G51C G63A A65U | ≤ 0.5
50 | A15C C31U C34G | ≤ 0.5
51 | A15C C33A C55G C61G | ≤ 0.5
52 | A15C C33G A70G | ≤ 0.5
53 | A15C C61A C66U | ≤ 0.5
54 | A15C G18A A20U A69C | ≤ 0.5
55 | A15C G18C C55A A69C | ≤ 0.5
56 | A15C G39C A40C A45U | ≤ 0.5
57 | A15C G52C | 0.575
58 | A15C G58A C61G C62G | ≤ 0.5
59 | A15C U16C A37C G50A U53A | ≤ 0.5
60 | A15C U26C C30U | ≤ 0.5
61 | A15C U28A | 0.622
62 | A15C U35G A45G | ≤ 0.5
63 | A15C U47G G52A | ≤ 0.5
64 | A15G A21C C24G A40U U47C U59A C62G A70C | ≤ 0.5
65 | A15G A21C C24U A36U A43U G58C C66A | ≤ 0.5
66 | A15G A21C C29G C30U A45U | ≤ 0.5
67 | A15G A21C U32C U64A | ≤ 0.5
68 | A15G A21G C34G A45G | ≤ 0.5
69 | A15G A21U C34U C46G U53G | ≤ 0.5
70 | A15G A42C G51C G67C | ≤ 0.5
71 | A15G C22G A36U A40G | ≤ 0.5
72 | A15G C24G A37G C49A | ≤ 0.5

Row | Variant | yeast fitness
73 | A15G C24G A45G | ≤ 0.5
74 | A15G C24G C61U G63U G68A | ≤ 0.5
75 | A15G C24U G56C | ≤ 0.5
76 | A15G C27A C55G | ≤ 0.5
77 | A15G C29G C33G | ≤ 0.5
78 | A15G C31A G41C | ≤ 0.5
79 | A15G C31G U47G C49G | 0.545
80 | A15G C34U A40U | ≤ 0.5
81 | A15G C55G G56U | ≤ 0.5
82 | A15G G17A U26C C33U G39C C55A G67C | ≤ 0.5
83 | A15G G18A C24G U47C C66U A69U | ≤ 0.5
84 | A15G G51A U54C C55G | ≤ 0.5
85 | A15G G58C C62G | ≤ 0.5
86 | A15G G67A | 0.868
87 | A15G U16A G38C C62G | ≤ 0.5
88 | A15G U19C G51C C55U | 0.582
89 | A15G U26G C30U U47G A57G A69U | ≤ 0.5
90 | A15G U26G C31G U32A | ≤ 0.5
91 | A15G U35A A65C | ≤ 0.5
92 | A15U A21C C24G C29U A42C U59G G67U | ≤ 0.5
93 | A15U A21G A43U | ≤ 0.5
94 | A15U A21G C29U G44C C55A G56C C61U A70G | ≤ 0.5
95 | A15U A37G G51C C62G | ≤ 0.5
96 | A15U A57G U64A | ≤ 0.5

Row | Variant | yeast fitness
97 | A15U C22U C29U | ≤ 0.5
98 | A15U C24U C27U C60A C62U U64C G68A A69C | ≤ 0.5
99 | A15U C27G C49A G52U | ≤ 0.5
100 | A15U C30G C34U A45G C66U A70C | ≤ 0.5
101 | A15U C30G C61U G68A | ≤ 0.5
102 | A15U C30G G50A A65C | ≤ 0.5
103 | A15U C33A A37G | ≤ 0.5
104 | A15U C33G A43C G44U | ≤ 0.5
105 | A15U C33G C49A C60G | ≤ 0.5
106 | A15U C33U A65C G68C | ≤ 0.5
107 | A15U C61G A69U | ≤ 0.5
108 | A15U G18A A42U | 0.567
109 | A15U G38C G41C A65G | ≤ 0.5
110 | A15U G39A A65U | ≤ 0.5
111 | A15U G41C A42U U64C | ≤ 0.5
112 | A15U G50A A57C | ≤ 0.5
113 | A15U G51C C55G | ≤ 0.5
114 | A15U G58C U59C C66G | ≤ 0.5
115 | A15U G67C | 0.657
116 | A15U U16C C27U G39A G48A | ≤ 0.5
117 | A15U U19C C31U A40C A69C | ≤ 0.5
118 | A15U U28C C55G G63A G67U A70C | ≤ 0.5
119 | A15U U47G A57U | ≤ 0.5
120 | U16A A20G A36C C49G C61G C62G | ≤ 0.5

Row | Variant | yeast fitness
121 | U16A A40G A57C | ≤ 0.5
122 | U16A A43C G67C | ≤ 0.5
123 | U16A C22U U26C G67A | ≤ 0.5
124 | U16A C24G C29G C31G A42G C61G | ≤ 0.5
125 | U16A C24U C33A G44C C61G A69U | ≤ 0.5
126 | U16A C27U G38A | ≤ 0.5
127 | U16A C30A C55U A70C | ≤ 0.5
128 | U16A C34A G39A | ≤ 0.5
129 | U16A C34G A45C C60A C61G | ≤ 0.5
130 | U16A C34U A65U G68A | ≤ 0.5
131 | U16A C49A G50A G68C | ≤ 0.5
132 | U16A C60A G67C | ≤ 0.5
133 | U16A C61U G67A G68U | ≤ 0.5
134 | U16A G17A A20G C22G C61U G68C | 0.559
135 | U16A G18A C31U A65G | 0.548
136 | U16A G41A A70U | 0.666
137 | U16A U32C C61G A69C | ≤ 0.5
138 | U16C A20C C27U C46A | ≤ 0.5
139 | U16C A20U G25A U28C C30G | ≤ 0.5
140 | U16C A21U | 0.756
141 | U16C A40U A57C A70U | 0.585
142 | U16C A40U C60A | ≤ 0.5
143 | U16C C29U C62U | 0.508
144 | U16C C33G G39C A69C | ≤ 0.5

Row | Variant | yeast fitness
145 | U16C C33U G68C | ≤ 0.5
146 | U16C G68C | 0.834
147 | U16C U26A G38C | ≤ 0.5
148 | U16G C24U C31G C33G C62A | ≤ 0.5
149 | U16G C30G C55G | ≤ 0.5
150 | U16G C30U C33G C55U G68U | ≤ 0.5
151 | U16G C55U A65C | ≤ 0.5
152 | U16G G38C G39A U64C C66A | ≤ 0.5
153 | U16G G39C A45G U53C | ≤ 0.5
154 | U16G U26G A36G C49G | ≤ 0.5
155 | U16G U26G A45U A70G | ≤ 0.5
156 | G17A A20G C22U A45G C46U A69U | ≤ 0.5
157 | G17A A21C C29U | ≤ 0.5
158 | G17A A21G A40G A42C G68C | ≤ 0.5
159 | G17A A21G G48C | ≤ 0.5
160 | G17A A21G U28G A65U | ≤ 0.5
161 | G17A A37C C55U C61U | ≤ 0.5
162 | G17A A40C | 0.668
163 | G17A A42G U64A | 0.58
164 | G17A A45U G51A | ≤ 0.5
165 | G17A C22G C30G G44C C49U | ≤ 0.5
166 | G17A C22U A37U U47A G68C | ≤ 0.5
167 | G17A C24A U35A G52A G58A | ≤ 0.5
